Here are results for four molecules from publication PMC4488664, “An Inactive Geminin Mutant That Binds Cdt1” (Genes, 2015).

Protein sequences, listed by entry. Tags and fused reporters are not part of them. Lines headed by an entry give the natural chain unless they say otherwise; changes in a name come on top.
UniProt O95251: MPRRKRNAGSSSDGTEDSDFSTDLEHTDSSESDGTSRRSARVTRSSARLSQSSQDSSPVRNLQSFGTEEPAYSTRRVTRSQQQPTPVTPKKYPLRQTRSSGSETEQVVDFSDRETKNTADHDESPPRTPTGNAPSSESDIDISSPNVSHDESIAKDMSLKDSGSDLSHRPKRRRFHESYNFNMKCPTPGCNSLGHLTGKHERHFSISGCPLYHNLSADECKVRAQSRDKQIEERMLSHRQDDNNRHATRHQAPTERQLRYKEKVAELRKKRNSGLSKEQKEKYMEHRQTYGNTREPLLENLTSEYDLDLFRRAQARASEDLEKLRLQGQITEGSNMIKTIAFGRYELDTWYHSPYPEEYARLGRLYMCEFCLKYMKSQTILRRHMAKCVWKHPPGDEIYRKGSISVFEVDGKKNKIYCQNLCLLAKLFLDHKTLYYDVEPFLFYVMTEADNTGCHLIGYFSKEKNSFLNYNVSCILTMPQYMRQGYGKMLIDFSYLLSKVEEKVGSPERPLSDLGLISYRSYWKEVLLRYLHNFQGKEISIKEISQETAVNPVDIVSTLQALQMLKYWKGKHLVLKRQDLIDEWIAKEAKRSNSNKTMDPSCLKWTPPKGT
UniProt P49717: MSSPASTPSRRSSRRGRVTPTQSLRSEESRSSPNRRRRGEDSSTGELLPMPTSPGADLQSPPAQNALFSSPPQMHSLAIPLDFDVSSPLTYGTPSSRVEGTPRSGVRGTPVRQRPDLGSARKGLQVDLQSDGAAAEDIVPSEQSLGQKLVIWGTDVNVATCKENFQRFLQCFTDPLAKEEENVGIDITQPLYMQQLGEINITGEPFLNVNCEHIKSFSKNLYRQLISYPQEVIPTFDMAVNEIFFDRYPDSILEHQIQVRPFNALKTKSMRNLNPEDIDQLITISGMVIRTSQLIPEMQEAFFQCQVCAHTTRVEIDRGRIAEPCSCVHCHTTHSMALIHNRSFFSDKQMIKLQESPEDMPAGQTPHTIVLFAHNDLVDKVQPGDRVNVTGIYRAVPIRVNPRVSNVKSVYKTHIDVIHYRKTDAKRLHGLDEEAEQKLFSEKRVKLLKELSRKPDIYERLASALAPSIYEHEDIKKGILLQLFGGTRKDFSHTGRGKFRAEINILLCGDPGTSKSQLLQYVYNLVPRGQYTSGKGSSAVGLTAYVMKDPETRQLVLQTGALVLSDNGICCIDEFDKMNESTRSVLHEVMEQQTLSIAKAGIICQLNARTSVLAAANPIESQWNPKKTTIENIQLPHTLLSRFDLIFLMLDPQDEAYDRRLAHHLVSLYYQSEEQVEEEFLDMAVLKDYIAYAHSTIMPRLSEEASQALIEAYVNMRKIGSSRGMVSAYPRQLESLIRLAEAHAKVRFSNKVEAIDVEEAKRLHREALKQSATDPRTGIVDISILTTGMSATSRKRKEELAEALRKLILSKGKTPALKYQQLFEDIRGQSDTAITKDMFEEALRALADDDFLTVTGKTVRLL

Results are given in words; binding and its absence hold for the method and conditions named. Binding seen in cells or lysates may run through a third protein. Some results given as binding are weak or reduced against the parent protein; the word gives no strength. Where a sequence is shown, tags or fusion partners need not be part of it.

In one experiment the target is T1, HA-Cdt1 (UniProt Q9H211).
T1 sequence: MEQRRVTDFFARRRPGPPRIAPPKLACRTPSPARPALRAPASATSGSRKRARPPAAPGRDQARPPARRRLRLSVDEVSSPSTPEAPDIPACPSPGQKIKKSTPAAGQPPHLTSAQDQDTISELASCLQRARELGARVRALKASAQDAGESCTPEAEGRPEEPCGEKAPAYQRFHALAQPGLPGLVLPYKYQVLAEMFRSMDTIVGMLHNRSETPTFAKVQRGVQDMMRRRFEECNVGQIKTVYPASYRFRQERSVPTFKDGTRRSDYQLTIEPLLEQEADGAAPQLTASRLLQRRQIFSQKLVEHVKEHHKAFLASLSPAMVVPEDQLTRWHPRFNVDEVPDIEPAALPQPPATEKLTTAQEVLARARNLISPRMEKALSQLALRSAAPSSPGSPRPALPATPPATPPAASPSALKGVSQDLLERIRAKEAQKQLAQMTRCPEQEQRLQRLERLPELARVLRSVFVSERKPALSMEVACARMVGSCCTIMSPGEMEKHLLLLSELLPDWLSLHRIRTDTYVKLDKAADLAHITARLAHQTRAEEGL
Kind of experiment: co-IP; lysates of HeLa cells expressing HA-Cdt1 and FLAG-HBO1 precipitated with anti-HA antibody.

Experiment [1] deals with T2, in vitro-translated mouse Myc-Cdt1 (mouse) (UniProt Q8R4E9).
T2 sequence: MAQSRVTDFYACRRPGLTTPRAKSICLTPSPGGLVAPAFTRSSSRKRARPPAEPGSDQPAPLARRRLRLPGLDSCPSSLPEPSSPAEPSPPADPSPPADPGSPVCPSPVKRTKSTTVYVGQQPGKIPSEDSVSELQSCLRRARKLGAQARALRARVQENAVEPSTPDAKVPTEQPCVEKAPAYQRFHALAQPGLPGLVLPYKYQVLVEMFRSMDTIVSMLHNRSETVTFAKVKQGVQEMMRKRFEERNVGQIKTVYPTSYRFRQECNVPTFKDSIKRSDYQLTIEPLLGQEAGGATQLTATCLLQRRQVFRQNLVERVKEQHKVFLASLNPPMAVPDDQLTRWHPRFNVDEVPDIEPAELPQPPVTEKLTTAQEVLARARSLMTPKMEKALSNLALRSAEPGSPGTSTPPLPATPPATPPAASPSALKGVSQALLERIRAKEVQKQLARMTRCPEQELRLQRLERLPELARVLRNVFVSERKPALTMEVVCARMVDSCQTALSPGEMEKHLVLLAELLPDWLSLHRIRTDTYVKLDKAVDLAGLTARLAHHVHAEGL
Nature of the experiment: co-IP; reticulocyte lysate with in vitro-translated mouse Myc-Cdt1 incubated on ice with recombinant Geminin (5, 10 or 40 µg/mL), then with purified mouse MCM4/6/7 complex (50 ng); anti-Myc 9E10 sepharose, 4 °C; washed with PBS and IP buffer; blotted for MCM4; only the binder purified.

Experiment [2] concerns the target HA-Cdt1:FLAG-HBO1 complex (UniProt Q9H211). Nature of the experiment: pull-down; HA-Cdt1:FLAG-HBO1 complex precipitated from HeLa lysate on anti-HA beads, incubated with recombinant mouse Geminin; extensive washing; bound Geminin by immunoblotting; only the binder purified. (Immunoblotting shows a protein as a band on a membrane.)

Take “FLAG-HBO1 (from UniProt O95251 1-611) (enzyme)”: in the experiment with HA-Cdt1, the binding entry is “binds”.
“purified mouse MCM4/6/7 complex (from UniProt P49717 1-862; P97311 1-821; Q61881 1-719)”: the binding entry in experiment [1] is reported as “binds”.

B1: mouse His6-Geminin^WT, full length (protein, UniProt O88513 1-206)
chain: MNLSMKQKQEGAQENVKNSPVPRRTLKMIQPSADGSLVGRENELPKGLFKRKLWDDQLASQTSSCGPEANENKDVGDLTQEAFDLISKENPSSQYWKEVAEQRRKALYEALKENEKLHKEIEQKDSEIARLRKENKDLAEVAEHVQYMAEVIERLSNEPLDNFESPDSQEFDSEEEAVEYSELEDSGAGTCAEETVSSSTDARPCT
Consider B1, for which, in experiment [2], the binding result is recorded as “binds”.

B2: recombinant Geminin^WT (Figure 3A) (protein, UniProt O88513 1-206)
chain: MNLSMKQKQEGAQENVKNSPVPRRTLKMIQPSADGSLVGRENELPKGLFKRKLWDDQLASQTSSCGPEANENKDVGDLTQEAFDLISKENPSSQYWKEVAEQRRKALYEALKENEKLHKEIEQKDSEIARLRKENKDLAEVAEHVQYMAEVIERLSNEPLDNFESPDSQEFDSEEEAVEYSELEDSGAGTCAEETVSSSTDARPCT
Consider B2, for which the binding result in experiment [1] was “binds”.
